Source: paper PMC11499256, “Two-factor authentication underpins the precision of the piRNA pathway” (Nature, 2024)
Results are given in words; binding and its absence hold for the method and conditions named. Binding seen in cells or lysates may run through a third protein. A yes stands for co-enrichment or nearness to the bait. Other partners may have been found. Tags and fused reporters may be left off the sequences shown.

Chains of the proteins cited; added tags and fusions are not shown.
UniProt Q61142: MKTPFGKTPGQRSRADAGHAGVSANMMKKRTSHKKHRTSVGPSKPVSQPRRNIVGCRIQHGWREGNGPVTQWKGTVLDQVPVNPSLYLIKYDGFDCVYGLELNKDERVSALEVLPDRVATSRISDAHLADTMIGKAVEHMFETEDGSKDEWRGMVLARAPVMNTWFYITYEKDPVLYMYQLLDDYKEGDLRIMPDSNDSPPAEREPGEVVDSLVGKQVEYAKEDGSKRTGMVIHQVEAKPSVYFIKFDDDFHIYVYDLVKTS

Target: T1, HA–SPOCD1 from the Spocd1^HA knock-in allele, E14.5 fetal testes (mouse (endogenous in fetal testis)) (UniProt B1ASB6)
T1 sequence: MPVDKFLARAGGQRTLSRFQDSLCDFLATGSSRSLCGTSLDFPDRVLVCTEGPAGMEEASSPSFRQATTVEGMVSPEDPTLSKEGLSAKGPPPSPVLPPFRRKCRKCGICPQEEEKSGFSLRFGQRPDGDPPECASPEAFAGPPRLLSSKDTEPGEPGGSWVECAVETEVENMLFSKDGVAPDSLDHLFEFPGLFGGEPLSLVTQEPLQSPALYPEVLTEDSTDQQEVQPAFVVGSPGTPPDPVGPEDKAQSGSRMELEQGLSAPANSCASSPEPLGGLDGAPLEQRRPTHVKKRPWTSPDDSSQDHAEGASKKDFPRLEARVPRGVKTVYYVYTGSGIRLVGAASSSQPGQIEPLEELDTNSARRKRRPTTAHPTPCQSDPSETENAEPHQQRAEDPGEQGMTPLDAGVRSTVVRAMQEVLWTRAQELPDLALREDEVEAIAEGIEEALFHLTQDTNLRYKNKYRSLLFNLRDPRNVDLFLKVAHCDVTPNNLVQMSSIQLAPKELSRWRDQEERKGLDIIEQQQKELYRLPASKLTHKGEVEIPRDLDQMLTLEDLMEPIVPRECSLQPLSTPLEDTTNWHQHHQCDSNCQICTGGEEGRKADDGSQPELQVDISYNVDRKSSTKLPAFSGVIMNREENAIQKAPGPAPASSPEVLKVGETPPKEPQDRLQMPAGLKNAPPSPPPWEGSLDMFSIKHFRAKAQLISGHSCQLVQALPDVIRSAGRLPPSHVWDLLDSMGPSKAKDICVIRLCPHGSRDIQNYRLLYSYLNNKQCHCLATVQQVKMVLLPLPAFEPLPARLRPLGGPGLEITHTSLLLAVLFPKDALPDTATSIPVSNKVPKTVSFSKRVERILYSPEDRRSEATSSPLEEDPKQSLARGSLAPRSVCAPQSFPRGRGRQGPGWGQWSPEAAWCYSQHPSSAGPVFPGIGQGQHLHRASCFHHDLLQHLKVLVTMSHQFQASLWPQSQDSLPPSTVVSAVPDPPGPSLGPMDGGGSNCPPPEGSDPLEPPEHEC
Experiment: affinity purification with mass spectrometry; anti-HA beads on E14.5 fetal testes of Spocd1^HA mice, 25 testes per replicate, wild-type testes as control, n = 3

“SPIN1, endogenous in E14.5 fetal testes (from UniProt Q61142 1-262)” was tested, and the binding was “binds”.
